Measurements from paper PMC4267192.

By UniProt entry, the sequences of proteins in these tests, tags left out. Where a name states a change or a piece, a line headed by the entry shows the natural chain unless it says otherwise.
UniProt P92973: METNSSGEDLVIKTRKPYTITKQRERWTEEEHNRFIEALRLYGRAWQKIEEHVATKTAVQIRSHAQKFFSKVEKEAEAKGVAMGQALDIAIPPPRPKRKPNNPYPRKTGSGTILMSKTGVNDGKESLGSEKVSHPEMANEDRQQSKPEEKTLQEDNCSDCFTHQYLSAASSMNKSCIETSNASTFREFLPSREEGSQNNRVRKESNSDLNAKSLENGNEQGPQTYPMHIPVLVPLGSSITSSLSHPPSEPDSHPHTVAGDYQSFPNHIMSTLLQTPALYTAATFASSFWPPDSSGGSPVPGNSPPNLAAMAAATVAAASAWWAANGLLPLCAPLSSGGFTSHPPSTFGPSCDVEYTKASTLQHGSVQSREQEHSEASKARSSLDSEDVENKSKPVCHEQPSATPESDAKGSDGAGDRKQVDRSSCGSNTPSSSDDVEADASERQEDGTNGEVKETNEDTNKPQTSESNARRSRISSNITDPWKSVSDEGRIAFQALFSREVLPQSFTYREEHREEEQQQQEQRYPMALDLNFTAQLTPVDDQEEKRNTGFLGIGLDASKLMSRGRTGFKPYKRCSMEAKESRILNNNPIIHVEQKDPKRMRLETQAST

Columns and labels:
[1] = target: CCA1-GST (UniProt P92973); assay: competition with a labelled probe; conditions: EMSA, excess unlabeled against labeled probe 1; 25 mM HEPES-KOH pH 7.5, 50 mM KCl, 2.5 mM DTT, 1 mM PMSF, 10% glycerol, 1 ug poly-dIdC in 10 ul, 20 min on ice (final concentrations calculated from 5X buffer); recombinant protein; protein details: GST (pGEX-3X); label: none (unlabeled competitor); probe letters rebuilt from the primers and the genome
[2] = target: CCA1-GST (UniProt P92973); assay: EMSA; conditions: 30-90 ng protein, two shifted bands, competed dose-dependently by unlabeled probe 1; 25 mM HEPES-KOH pH 7.5, 50 mM KCl, 2.5 mM DTT, 1 mM PMSF, 10% glycerol, 1 ug poly-dIdC in 10 ul, 20 min on ice (final concentrations calculated from 5X buffer); recombinant protein; protein details: GST (pGEX-3X); label: 32P end label; probe letters rebuilt from the primers and the genome

Sequence	binding result [1]	binding result [2]
ATCAACAAACCACTGATTCAACTACACTTTTGATTTAAATGTGAAAGCTAGTGAGACTCATTTAAAAAAACATTGATCATCTAAAAATAGAAACCCTAATTAAGGAATCAGGGAAAAAAGATTACCTGTGTAAGAAGGTAACCCCAGAAGAAAGAAGACTGAATCAGACCAACTGTTGCTGGATTCCAACCATACTCAGCTGACATCGGAAGTATAGCTATACTCATATTCACCTGTTAAAACATCATCTGTCCCAAATTGAATAACTCTTCCCAATCCATAAAAATCCAATCTTTTTTGCTACTTACTCTGTCCATATTGCAGAGAAGAAAAGCTGAGAAACAGAGTAACACAATCACCCACCGCTTCGGAAACTCTTCCCACCATGGGAGGACGATAGAGCTAGGCGAATCAGAAACGACGTCATTGTTTCCACTTACTTTATCTCCTTCTACGTAATACGAATTACTGCTTTCACTCTTGTCGGAGCTCCGAACTAATACCCGGAAAACACTGGACCTATTTCGCGGGTAG (double strand) [PHT4;1-NC (PHT4;1-negative)]	no binding	
GTAGAGAGAGTGAATATTTGAAGAGCAAAGAAGAGCTCTCGCGTTCATGGCGGAGATAGATTTTTTCTTCTTCTTCTCTGTTTTTTTCTTCTTTGTTTTAAGAGAGAGGAATTGATTTTTTTTTAAGGTCGTGGCTGATGTGACGACATGTGGCGTTTAAGTATTGGTTGAGTGAGGATGTCATAATCTAACGGGAAGTAACGGTTAACAGAATAACTATTGGAGGTCCATTATTAACTATCAGTTTAACATAAAGCCCATATAAGGCCCAAATAATGTTAGCTTACGAGCATAAATTGCGAGATCTATCTTACTTCCCCAATGAAAAAAAAATCTCAAAGATTTGGAAGTAGACCTATGAATAGAATTACAATAATACGGCAATACCAATAACAA (double strand) [PHT4;1 promoter probe 1]		binds

Construct, isoform or probe ends are uncertain for at least one entry. For some assays here: Negatives hold for the conditions tested.
